# Laboratory results published in the supplement of paper PMC10032668.
# Sequences of proteins named here, by UniProt entry; tags and fusion partners are left off.
# AIFM1, O95831, UniProt O95831, whole entry: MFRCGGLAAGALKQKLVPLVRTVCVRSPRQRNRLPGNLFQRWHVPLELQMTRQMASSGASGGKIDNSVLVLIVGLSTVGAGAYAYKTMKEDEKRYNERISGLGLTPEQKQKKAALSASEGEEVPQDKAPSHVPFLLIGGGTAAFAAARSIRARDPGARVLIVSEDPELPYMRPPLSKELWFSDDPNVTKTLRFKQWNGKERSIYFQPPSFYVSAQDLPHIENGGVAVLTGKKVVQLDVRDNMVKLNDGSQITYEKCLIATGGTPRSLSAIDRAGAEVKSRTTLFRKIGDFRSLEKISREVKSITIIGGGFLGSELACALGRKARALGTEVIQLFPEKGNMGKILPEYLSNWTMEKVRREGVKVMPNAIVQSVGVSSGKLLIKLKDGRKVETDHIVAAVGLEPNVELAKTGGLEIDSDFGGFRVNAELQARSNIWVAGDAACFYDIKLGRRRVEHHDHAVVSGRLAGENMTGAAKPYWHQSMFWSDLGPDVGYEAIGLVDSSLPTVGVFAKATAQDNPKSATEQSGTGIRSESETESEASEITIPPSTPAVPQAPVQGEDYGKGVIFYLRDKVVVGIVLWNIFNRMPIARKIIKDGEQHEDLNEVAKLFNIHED
# BIRC5, O15392, UniProt O15392, whole entry: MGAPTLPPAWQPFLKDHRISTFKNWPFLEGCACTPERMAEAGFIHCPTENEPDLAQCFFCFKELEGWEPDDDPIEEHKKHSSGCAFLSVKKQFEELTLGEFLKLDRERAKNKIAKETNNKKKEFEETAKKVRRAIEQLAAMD
# COIL, P38432, UniProt P38432, whole entry: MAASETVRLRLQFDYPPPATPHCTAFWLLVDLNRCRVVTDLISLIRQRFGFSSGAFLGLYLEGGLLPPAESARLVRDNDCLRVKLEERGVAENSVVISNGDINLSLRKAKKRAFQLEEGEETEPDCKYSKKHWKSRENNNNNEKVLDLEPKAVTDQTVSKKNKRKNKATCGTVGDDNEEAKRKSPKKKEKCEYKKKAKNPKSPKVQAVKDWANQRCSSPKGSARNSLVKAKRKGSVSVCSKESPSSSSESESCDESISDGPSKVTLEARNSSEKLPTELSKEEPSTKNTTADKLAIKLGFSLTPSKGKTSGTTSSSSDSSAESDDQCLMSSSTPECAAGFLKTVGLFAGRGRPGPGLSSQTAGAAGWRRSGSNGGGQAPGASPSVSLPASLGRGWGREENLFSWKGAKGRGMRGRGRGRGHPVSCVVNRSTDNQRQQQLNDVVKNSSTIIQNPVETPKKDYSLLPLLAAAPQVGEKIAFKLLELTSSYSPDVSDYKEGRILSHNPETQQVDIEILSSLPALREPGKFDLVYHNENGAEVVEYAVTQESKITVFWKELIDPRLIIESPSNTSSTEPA
# EIF3E, P60228, UniProt P60228, whole entry: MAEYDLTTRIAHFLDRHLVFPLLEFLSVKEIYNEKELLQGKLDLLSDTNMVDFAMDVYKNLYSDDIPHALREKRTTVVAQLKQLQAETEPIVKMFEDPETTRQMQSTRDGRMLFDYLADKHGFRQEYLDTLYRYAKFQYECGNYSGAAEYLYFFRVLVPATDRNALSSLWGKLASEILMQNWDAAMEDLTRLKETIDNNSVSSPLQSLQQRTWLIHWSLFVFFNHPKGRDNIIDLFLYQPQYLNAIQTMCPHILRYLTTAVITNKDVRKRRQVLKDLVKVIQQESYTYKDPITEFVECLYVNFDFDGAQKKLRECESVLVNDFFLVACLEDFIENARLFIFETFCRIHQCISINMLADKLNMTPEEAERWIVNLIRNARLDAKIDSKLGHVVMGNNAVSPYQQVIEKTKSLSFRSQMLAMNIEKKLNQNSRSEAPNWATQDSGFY
# EIF4E, P06730, UniProt P06730, whole entry: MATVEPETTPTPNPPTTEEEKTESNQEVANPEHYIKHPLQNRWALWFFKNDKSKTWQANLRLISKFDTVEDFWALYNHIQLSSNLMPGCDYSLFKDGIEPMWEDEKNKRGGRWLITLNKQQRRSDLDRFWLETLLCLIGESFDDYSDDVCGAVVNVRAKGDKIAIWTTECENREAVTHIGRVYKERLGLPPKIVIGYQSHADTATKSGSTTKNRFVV
# EPB41, P11171, UniProt P11171, whole entry: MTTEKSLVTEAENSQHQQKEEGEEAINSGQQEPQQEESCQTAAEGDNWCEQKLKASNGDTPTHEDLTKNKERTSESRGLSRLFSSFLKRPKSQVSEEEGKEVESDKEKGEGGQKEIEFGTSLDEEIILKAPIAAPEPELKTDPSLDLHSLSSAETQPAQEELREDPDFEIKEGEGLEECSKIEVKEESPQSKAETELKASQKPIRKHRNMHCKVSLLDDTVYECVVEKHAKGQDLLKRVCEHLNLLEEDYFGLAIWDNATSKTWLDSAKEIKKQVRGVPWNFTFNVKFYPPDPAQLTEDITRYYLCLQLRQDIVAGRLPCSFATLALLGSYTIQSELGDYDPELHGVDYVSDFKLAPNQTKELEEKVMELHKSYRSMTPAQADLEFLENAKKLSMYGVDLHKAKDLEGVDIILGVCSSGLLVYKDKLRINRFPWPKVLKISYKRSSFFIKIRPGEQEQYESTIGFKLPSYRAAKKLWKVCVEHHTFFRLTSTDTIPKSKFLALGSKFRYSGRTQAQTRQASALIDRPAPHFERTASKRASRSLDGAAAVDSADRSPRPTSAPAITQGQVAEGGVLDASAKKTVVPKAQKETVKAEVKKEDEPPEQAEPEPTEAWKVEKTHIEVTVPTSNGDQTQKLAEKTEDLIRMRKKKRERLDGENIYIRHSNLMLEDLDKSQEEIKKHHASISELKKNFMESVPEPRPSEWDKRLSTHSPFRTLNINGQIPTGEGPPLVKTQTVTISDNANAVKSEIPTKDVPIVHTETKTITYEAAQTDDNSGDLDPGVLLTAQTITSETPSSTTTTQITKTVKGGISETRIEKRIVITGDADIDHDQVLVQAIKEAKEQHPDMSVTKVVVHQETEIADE
# LRPAP1, P30533, UniProt P30533, whole entry: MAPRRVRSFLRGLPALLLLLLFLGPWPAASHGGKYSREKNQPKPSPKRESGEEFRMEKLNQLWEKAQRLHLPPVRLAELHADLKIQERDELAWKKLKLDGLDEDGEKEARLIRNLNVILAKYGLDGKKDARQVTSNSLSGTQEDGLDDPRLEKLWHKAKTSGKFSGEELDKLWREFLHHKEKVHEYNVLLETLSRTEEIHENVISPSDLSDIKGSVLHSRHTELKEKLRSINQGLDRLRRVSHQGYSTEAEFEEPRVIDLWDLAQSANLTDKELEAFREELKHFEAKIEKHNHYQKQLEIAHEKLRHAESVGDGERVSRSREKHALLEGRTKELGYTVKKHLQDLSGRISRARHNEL
# NDUFS2, O75306, UniProt O75306, whole entry: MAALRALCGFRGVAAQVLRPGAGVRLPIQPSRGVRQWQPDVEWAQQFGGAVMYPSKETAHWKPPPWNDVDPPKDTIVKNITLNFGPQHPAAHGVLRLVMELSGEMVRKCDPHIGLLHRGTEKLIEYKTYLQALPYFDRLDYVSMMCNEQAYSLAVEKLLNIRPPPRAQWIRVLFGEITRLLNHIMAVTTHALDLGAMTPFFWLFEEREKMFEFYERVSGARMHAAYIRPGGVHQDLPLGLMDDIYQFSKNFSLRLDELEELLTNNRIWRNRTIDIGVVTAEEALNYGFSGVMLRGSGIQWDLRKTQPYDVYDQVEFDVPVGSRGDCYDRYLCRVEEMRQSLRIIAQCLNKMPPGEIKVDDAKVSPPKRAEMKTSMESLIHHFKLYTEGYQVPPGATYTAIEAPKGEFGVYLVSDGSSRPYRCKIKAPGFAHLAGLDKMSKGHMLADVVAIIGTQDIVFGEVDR
# SELENOI, Q9C0D9, UniProt Q9C0D9, whole entry: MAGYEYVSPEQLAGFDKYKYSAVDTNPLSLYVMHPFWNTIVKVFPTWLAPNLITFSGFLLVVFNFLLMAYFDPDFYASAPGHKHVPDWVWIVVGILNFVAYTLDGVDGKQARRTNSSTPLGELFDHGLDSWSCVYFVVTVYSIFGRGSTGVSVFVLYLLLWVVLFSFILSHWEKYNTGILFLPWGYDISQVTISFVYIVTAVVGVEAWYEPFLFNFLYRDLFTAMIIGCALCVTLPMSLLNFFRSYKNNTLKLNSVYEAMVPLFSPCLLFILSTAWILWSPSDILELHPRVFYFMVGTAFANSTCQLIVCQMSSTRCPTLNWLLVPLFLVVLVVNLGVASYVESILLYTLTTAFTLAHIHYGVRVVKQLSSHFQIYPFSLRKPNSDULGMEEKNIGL
# SMARCA4, P51532, UniProt P51532, whole entry: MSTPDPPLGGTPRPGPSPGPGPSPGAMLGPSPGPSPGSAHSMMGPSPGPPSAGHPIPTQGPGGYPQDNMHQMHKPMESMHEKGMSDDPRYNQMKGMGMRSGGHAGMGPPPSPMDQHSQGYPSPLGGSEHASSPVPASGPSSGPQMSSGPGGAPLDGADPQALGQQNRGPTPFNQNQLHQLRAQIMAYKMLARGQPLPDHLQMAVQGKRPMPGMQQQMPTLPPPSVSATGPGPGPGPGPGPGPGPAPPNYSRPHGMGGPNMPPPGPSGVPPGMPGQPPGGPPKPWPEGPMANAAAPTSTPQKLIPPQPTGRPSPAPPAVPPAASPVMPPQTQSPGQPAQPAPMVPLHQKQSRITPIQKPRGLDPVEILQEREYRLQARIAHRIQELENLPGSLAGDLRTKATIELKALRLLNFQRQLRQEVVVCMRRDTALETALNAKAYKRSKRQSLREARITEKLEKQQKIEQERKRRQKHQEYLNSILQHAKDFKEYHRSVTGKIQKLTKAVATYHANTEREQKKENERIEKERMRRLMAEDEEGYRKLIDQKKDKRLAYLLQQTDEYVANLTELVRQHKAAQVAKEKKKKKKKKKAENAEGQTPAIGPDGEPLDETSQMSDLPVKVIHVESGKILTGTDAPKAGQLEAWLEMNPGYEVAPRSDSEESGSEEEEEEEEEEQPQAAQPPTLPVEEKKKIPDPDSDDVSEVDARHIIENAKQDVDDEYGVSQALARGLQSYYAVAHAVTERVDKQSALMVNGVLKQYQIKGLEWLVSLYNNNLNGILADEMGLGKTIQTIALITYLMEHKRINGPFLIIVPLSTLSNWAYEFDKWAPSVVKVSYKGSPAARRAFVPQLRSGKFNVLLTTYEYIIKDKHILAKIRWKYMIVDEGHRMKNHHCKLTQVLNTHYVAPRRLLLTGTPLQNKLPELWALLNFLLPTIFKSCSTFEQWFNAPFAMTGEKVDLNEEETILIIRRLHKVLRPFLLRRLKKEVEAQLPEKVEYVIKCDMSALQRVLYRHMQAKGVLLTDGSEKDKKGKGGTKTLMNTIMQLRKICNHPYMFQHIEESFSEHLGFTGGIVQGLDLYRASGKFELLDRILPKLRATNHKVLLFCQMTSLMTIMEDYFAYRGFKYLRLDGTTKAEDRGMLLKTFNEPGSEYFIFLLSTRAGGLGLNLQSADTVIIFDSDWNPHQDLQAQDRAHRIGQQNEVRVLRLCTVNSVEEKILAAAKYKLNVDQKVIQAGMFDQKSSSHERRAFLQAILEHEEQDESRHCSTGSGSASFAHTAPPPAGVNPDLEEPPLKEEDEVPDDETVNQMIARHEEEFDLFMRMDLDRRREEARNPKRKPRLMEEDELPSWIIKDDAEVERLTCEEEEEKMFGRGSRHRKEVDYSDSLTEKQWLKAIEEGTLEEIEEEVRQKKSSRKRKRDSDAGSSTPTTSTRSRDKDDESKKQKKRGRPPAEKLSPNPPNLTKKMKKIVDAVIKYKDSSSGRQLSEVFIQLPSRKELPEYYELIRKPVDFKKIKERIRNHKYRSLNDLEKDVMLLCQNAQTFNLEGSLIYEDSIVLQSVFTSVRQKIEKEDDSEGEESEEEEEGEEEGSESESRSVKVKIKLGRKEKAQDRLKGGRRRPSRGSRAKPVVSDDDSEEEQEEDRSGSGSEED
# SNRPB2, P08579, UniProt P08579, whole entry: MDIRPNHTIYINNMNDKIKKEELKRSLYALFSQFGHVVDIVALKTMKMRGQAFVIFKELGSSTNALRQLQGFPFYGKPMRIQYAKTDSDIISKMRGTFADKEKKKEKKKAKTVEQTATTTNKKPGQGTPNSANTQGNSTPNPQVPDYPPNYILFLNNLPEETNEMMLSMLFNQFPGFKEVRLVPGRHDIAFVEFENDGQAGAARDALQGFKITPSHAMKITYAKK
# Some of the results follow. Only hits are listed; about a third recur on repeated control peptides.
# B1: PALLD (peptide)
# chain: MKTVQICQGPPPMSP
# Key:
# Assay in all cases: PRISMA enrichment of interactor (LFQ) in peptide spot vs all other peptide spots (log2 fold change); higher = stronger / more specific binding of the interactor to the peptide
# [1] = target: AIFM1, O95831
# Experimental: (§1)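 PRISMA: 15-aa overlapping tiles (offset 8 aa) of 60 microproteins, plus SOS1/GLUT1 control peptides, were spot-synthesized on cellulose membranes in triplicate. Membranes were incubated with benzonase-treated HEK293T lysate, and bound proteins were identified by LC-MS/MS with LFQ. Enrichment is the log2 fold change of each protein in one spot versus all other spots. Only interactors passing the significance cutoff are listed.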
# [2] = target: ARFGAP1, Q8N6T3
# Experimental: as §1
# [3] = target: ARHGAP19, Q14CB8
# Experimental: as §1
# [4] = target: BIRC5, O15392
# Experimental: as §1
# [5] = target: BPTF, Q12830
# Experimental: as §1
# [6] = target: BYSL, Q13895
# Experimental: as §1
# [7] = target: C7orf50, Q9BRJ6
# Experimental: as §1
# [8] = target: CDC73, Q6P1J9
# Experimental: as §1
# [9] = target: CDKN2AIP, Q9NXV6
# Experimental: as §1
# [10] = target: CEP290, O15078
# Experimental: as §1
# [11] = target: CKAP2L, Q8IYA6
# Experimental: as §1
# [12] = target: COIL, P38432
# Experimental: as §1
# [13] = target: CTTN, Q14247
# Experimental: as §1
# [14] = target: DAZAP1, Q96EP5
# Experimental: as §1
# [15] = target: DCAF1, Q9Y4B6
# Experimental: as §1
# [16] = target: DFFA, O00273
# Experimental: as §1
# [17] = target: EIF3E, P60228
# Experimental: as §1
# [18] = target: EIF4E, P06730
# Experimental: as §1
# [19] = target: EPB41, P11171
# Experimental: as §1
# [20] = target: EXOC7, Q9UPT5
# Experimental: as §1
# [21] = target: FAM98A, Q8NCA5
# Experimental: as §1
# [22] = target: HLTF, Q14527
# Experimental: as §1
# [23] = target: HMGN1, P05114
# Experimental: as §1
# [24] = target: HNRNPUL1, Q9BUJ2
# Experimental: as §1
# [25] = target: IDH3B, O43837
# Experimental: as §1
# [26] = target: KARS, Q15046
# Experimental: as §1
# [27] = target: KIF18A, Q8NI77
# Experimental: as §1
# [28] = target: LMNA, P02545
# Experimental: as §1
# [29] = target: LRPAP1, P30533
# Experimental: as §1
# [30] = target: NCBP3, Q53F19
# Experimental: as §1
# [31] = target: NDUFS2, O75306
# Experimental: as §1
# [32] = target: NKRF, O15226
# Experimental: as §1
# [33] = target: NVL, O15381
# Experimental: as §1
# [34] = target: PGAM1, P18669
# Experimental: as §1
# [35] = target: POGZ, Q7Z3K3
# Experimental: as §1
# [36] = target: POLA1, P09884
# Experimental: as §1
# [37] = target: PPAN-P2RY11
# Experimental: as §1
# [38] = target: PPP2R2A, P63151
# Experimental: as §1
# [39] = target: RAB14, P61106
# Experimental: as §1
# [40] = target: RELCH, Q9P260
# Experimental: as §1
# [41] = target: RO60, P10155
# Experimental: as §1
# [42] = target: RPS27L, Q71UM5
# Experimental: as §1
# [43] = target: RPUSD4, Q96CM3
# Experimental: as §1
# [44] = target: RRP8, O43159
# Experimental: as §1
# [45] = target: SELENOI, Q9C0D9
# Experimental: as §1
# [46] = target: SEMG1, P04279
# Experimental: as §1
# [47] = target: SFXN4, Q6P4A7
# Experimental: as §1
# [48] = target: SHMT1, P34896
# Experimental: as §1
# [49] = target: SMARCA4, P51532
# Experimental: as §1
# [50] = target: SNRPB2, P08579
# Experimental: as §1
# [51] = target: SNU13, P55769
# Experimental: as §1
# [52] = target: SSBP1, Q04837
# Experimental: as §1
# [53] = target: STAT1, P42224
# Experimental: as §1
# [54] = target: TAF15, Q92804
# Experimental: as §1
# [55] = target: TIMM8B, Q9Y5J9
# Experimental: as §1
# [56] = target: TMED1, Q13445
# Experimental: as §1
# [57] = target: TOP2A, P11388
# Experimental: as §1
# [58] = target: TSPYL2, Q9H2G4
# Experimental: as §1
# [59] = target: ZNF346, Q9UL40
# Experimental: as §1
# [60] = target: ZNF512B, Q96KM6
# Experimental: as §1
binder,measurement,setting,value
B1,PRISMA enrichment of interactor (log2),[1],5.46
same,PRISMA enrichment of interactor (log2),[2],4.24
same,PRISMA enrichment of interactor (log2),[3],4.4
same,PRISMA enrichment of interactor (log2),[4],3.74
same,PRISMA enrichment of interactor (log2),[5],5.04
same,PRISMA enrichment of interactor (log2),[6],4.65
same,PRISMA enrichment of interactor (log2),[7],7.79
same,PRISMA enrichment of interactor (log2),[8],9.94
same,PRISMA enrichment of interactor (log2),[9],4.77
same,PRISMA enrichment of interactor (log2),[10],5.82
same,PRISMA enrichment of interactor (log2),[11],4.55
same,PRISMA enrichment of interactor (log2),[12],5.56
same,PRISMA enrichment of interactor (log2),[13],4.02
same,PRISMA enrichment of interactor (log2),[14],6.17
same,PRISMA enrichment of interactor (log2),[15],5.39
same,PRISMA enrichment of interactor (log2),[16],4.56
same,PRISMA enrichment of interactor (log2),[17],4.93
same,PRISMA enrichment of interactor (log2),[18],4.33
same,PRISMA enrichment of interactor (log2),[19],4.59
same,PRISMA enrichment of interactor (log2),[20],5.5
same,PRISMA enrichment of interactor (log2),[21],4.96
same,PRISMA enrichment of interactor (log2),[22],4.47
same,PRISMA enrichment of interactor (log2),[23],7.88
same,PRISMA enrichment of interactor (log2),[24],4.33
same,PRISMA enrichment of interactor (log2),[25],4.4
same,PRISMA enrichment of interactor (log2),[26],5.07
same,PRISMA enrichment of interactor (log2),[27],4.46
same,PRISMA enrichment of interactor (log2),[28],4.07
same,PRISMA enrichment of interactor (log2),[29],3.95
same,PRISMA enrichment of interactor (log2),[30],6.52
same,PRISMA enrichment of interactor (log2),[31],4.07
same,PRISMA enrichment of interactor (log2),[32],9.48
same,PRISMA enrichment of interactor (log2),[33],7.08
same,PRISMA enrichment of interactor (log2),[34],4.18
same,PRISMA enrichment of interactor (log2),[35],5.4
same,PRISMA enrichment of interactor (log2),[36],8.98
same,PRISMA enrichment of interactor (log2),[37],4.59
same,PRISMA enrichment of interactor (log2),[38],5.54
same,PRISMA enrichment of interactor (log2),[39],4.77
same,PRISMA enrichment of interactor (log2),[40],3.7
same,PRISMA enrichment of interactor (log2),[41],5
same,PRISMA enrichment of interactor (log2),[42],3.95
same,PRISMA enrichment of interactor (log2),[43],6.63
same,PRISMA enrichment of interactor (log2),[44],3.68
same,PRISMA enrichment of interactor (log2),[45],4.1
same,PRISMA enrichment of interactor (log2),[46],4.99
same,PRISMA enrichment of interactor (log2),[47],4.28
same,PRISMA enrichment of interactor (log2),[48],6.88
same,PRISMA enrichment of interactor (log2),[49],4.37
same,PRISMA enrichment of interactor (log2),[50],5.64
same,PRISMA enrichment of interactor (log2),[51],8.42
same,PRISMA enrichment of interactor (log2),[52],4.75
same,PRISMA enrichment of interactor (log2),[53],4.08
same,PRISMA enrichment of interactor (log2),[54],5.12
same,PRISMA enrichment of interactor (log2),[55],10.5
same,PRISMA enrichment of interactor (log2),[56],4.77
same,PRISMA enrichment of interactor (log2),[57],5.38
same,PRISMA enrichment of interactor (log2),[58],3.79
same,PRISMA enrichment of interactor (log2),[59],4.26
same,PRISMA enrichment of interactor (log2),[60],5.69

# In a second layout: results already given
binder	measurement	setting	value
B1	PRISMA enrichment of interactor (log2)	[29]	3.95
same	PRISMA enrichment of interactor (log2)	[30]	6.52
same	PRISMA enrichment of interactor (log2)	[31]	4.07
same	PRISMA enrichment of interactor (log2)	[32]	9.48
